Results are given in words; binding and its absence hold for the method and conditions named. Binding seen in cells or lysates may run through a third protein. Some entries that bind do so weakly or less than the wild type. For part of these data: Sequences can lack the tags named with a protein.
Columns and labels:
Assay in all cases: co-IP
[1] = target: T1, HA-Zdhhc23 (mouse) (mouse) (UniProt Q5Y5T3)
T1 sequence: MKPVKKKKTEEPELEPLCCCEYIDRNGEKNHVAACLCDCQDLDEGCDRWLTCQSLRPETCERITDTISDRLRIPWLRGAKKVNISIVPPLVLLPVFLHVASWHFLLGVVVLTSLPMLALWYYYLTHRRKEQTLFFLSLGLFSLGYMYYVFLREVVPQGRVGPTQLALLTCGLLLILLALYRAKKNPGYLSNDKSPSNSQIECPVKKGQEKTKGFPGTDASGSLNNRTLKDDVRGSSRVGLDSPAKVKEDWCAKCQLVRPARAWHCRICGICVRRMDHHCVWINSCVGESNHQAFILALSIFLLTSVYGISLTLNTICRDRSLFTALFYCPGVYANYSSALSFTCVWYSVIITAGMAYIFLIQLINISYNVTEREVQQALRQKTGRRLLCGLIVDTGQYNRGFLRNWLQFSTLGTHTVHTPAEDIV

Amino acid sequences for entries named in this document (tags omitted). A change or cut given only in a name is not applied to a line headed by its entry.
UniProt Q7Z5G4, whole entry: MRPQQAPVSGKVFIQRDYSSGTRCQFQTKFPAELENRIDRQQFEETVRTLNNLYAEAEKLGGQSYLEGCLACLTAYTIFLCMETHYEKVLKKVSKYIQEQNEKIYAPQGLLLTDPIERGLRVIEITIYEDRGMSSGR

[2] = target: Zdhhc5^RNAR (Tyr146Ala) (mouse) (UniProt Q8VDZ4)
Zdhhc19^RNYR (mouse) = target: T2, Zdhhc19^RNYR (mouse) (UniProt Q810M5)
T2 sequence: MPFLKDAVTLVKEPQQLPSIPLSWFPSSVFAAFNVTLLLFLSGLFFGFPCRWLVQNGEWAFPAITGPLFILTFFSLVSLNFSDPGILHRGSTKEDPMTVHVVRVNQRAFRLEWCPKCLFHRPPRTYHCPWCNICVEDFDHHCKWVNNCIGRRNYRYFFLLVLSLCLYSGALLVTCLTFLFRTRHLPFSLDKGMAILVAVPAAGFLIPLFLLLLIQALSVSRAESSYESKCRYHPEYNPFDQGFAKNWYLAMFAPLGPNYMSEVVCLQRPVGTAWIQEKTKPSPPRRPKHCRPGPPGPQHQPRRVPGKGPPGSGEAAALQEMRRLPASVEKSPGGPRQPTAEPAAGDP

In the case of “endogenous human GOLGA7 (from UniProt Q7Z5G4 1-137)”, the binding [1] is reported as “no binding”, the binding [2] is reported as “binds” and the binding (Zdhhc19^RNYR (mouse)) is reported as “no binding”.
